The text below walks through data of paper doi:10.1101/2025.11.07.687288.

Chains of the proteins cited; added tags and fusions are not shown. Lines headed by an entry give the natural chain unless they say otherwise; changes in a name come on top. Residues count along the entry.
UniProt F1PAA9, 157-885: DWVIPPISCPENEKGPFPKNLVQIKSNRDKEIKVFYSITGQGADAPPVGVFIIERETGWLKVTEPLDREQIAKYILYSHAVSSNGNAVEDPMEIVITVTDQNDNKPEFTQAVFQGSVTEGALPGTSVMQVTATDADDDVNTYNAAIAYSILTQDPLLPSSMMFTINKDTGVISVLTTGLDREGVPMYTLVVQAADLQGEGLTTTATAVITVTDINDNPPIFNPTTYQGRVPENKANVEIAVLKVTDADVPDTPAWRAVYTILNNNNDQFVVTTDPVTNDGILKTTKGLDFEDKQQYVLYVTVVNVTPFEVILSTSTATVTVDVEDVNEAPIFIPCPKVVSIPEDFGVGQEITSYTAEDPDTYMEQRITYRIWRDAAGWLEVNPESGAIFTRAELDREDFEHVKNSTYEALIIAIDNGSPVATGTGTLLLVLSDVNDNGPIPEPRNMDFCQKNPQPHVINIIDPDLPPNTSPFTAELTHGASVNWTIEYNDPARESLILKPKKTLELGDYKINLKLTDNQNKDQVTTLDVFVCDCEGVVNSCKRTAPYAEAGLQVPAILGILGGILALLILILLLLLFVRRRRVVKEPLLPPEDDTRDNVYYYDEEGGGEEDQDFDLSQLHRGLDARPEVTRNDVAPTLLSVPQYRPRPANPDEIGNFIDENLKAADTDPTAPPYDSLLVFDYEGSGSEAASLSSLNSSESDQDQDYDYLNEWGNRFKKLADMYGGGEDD

Read-outs that look alike come from different tables or passages of the source. These are yes or no findings as the source states them, for the method shown. Binding seen in cells or lysates may run through a third protein. A yes stands for co-enrichment or nearness to the bait. Other partners may have been found. For part of these data: Where a sequence is shown, tags or fusion partners need not be part of it.

Test in all cases: proximity labelling
Assay [1] addresses E-cadherin, wild type, as the Dimerization Activated TurboID pair (WT-DAT: EcadN and EcadC) (UniProt F1PAA9).
For assay [2], the target named is WT-Ecad fused to full-length TurboID (WT-Turbo) (UniProt F1PAA9).
For assay [3] the target is unchanged. This is another data set of the same source.
Assay [4] addresses Δ-Ecad (V81D L175D) fused to full-length TurboID (Δ-Turbo).
The target in assay [5] is E-cadherin, wild type, as the Dimerization Activated TurboID pair (WT-DAT: EcadN and EcadC) (UniProt F1PAA9). The source holds these as a separate data set.

As to Vinculin (from UniProt P18206-2), the binding result in assay [1] and in assay [2] was “binds” in each case.

B1: p120-catenin (protein, UniProt O60716 1-968)
chain: MDDSEVESTASILASVKEQEAQFEKLTRALEEERRHVSAQLERVRVSPQDANPLMANGTLTRRHQNGRFVGDADLERQKFSDLKLNGPQDHSHLLYSTIPRMQEPGQIVETYTEEDPEGAMSVVSVETSDDGTTRRTETTVKKVVKTVTTRTVQPVAMGPDGLPVDASSVSNNYIQTLGRDFRKNGNGGPGPYVGQAGTATLPRNFHYPPDGYSRHYEDGYPGGSDNYGSLSRVTRIEERYRPSMEGYRAPSRQDVYGPQPQVRVGGSSVDLHRFHPEPYGLEDDQRSMGYDDLDYGMMSDYGTARRTGTPSDPRRRLRSYEDMIGEEVPSDQYYWAPLAQHERGSLASLDSLRKGGPPPPNWRQPELPEVIAMLGFRLDAVKSNAAAYLQHLCYRNDKVKTDVRKLKGIPVLVGLLDHPKKEVHLGACGALKNISFGRDQDNKIAIKNCDGVPALVRLLRKARDMDLTEVITGTLWNLSSHDSIKMEIVDHALHALTDEVIIPHSGWEREPNEDCKPRHIEWESVLTNTAGCLRNVSSERSEARRKLRECDGLVDALIFIVQAEIGQKDSDSKLVENCVCLLRNLSYQVHREIPQAERYQEAAPNVANNTGPHAASCFGAKKGKDEWFSRGKKPIEDPANDTVDFPKRTSPARGYELLFQPEVVRIYISLLKESKTPAILEASAGAIQNLCAGRWTYGRYIRSALRQEKALSAIADLLTNEHERVVKAASGALRNLAVDARNKELIGKHAIPNLVKNLPGGQQNSSWNFSEDTVISILNTINEVIAENLEAAKKLRETQGIEKLVLINKSGNRSEKEVRAAALVLQTIWGYKELRKPLEKEGWKKSDFQVNLNNASRSQSSHSYDDSTLPLIDRNQKSDKKPDREEIQMSNMGSNTKSLDNNYSTPNERGDHNRTLDRSGDLGDMEPLKGTTPLMQDEGQESLEEELDVLVLDDEGGQVSYPSMQKI
Turning to B1, the binding entry in assay [3] and in assay [4] was “binds” throughout.

B2: Synaptotagmin-like protein 4 (protein, UniProt Q96C24 1-671)
chain: MSELLDLSFLSEEEKDLILSVLQRDEEVRKADEKRIRRLKNELLEIKRKGAKRGSQHYSDRTCARCQESLGRLSPKTNTCRGCNHLVCRDCRIQESNGTWRCKVCAKEIELKKATGDWFYDQKVNRFAYRTGSEIIRMSLRHKPAVSKRETVGQSLLHQTQMGDIWPGRKIIQERQKEPSVLFEVPKLKSGKSALEAESESLDSFTADSDSTSRRDSLDKSGLFPEWKKMSAPKSQVEKETQPGGQNVVFVDEGEMIFKKNTRKILRPSEYTKSVIDLRPEDVVHESGSLGDRSKSVPGLNVDMEEEEEEEDIDHLVKLHRQKLARSSMQSGSSMSTIGSMMSIYSEAGDFGNIFVTGRIAFSLKYEQQTQSLVVHVKECHQLAYADEAKKRSNPYVKTYLLPDKSRQGKRKTSIKRDTINPLYDETLRYEIPESLLAQRTLQFSVWHHGRFGRNTFLGEAEIQMDSWKLDKKLDHCLPLHGKISAESPTGLPSHKGELVVSLKYIPASKTPVGGDRKKSKGGEGGELQVWIKEAKNLTAAKAGGTSDSFVKGYLLPMRNKASKRKTPVMKKTLNPHYNHTFVYNGVRLEDLQHMCLELTVWDREPLASNDFLGGVRLGVGTGISNGEVVDWMDSTGEEVSLWQKMRQYPGSWAEGTLQLRSSMAKQKLGL
Consider B2, for which the binding result in assay [5] and in assay [3] was “binds” each time.
